# Whole data set: some 33,000 sequences, median “E-score (-0.5 to 0.5)” near -0.016, cut for the highest 2% near 0.3. Some of the results follow.
# Target: T1, Yer184c (UniProt P39961)
# T1 sequence: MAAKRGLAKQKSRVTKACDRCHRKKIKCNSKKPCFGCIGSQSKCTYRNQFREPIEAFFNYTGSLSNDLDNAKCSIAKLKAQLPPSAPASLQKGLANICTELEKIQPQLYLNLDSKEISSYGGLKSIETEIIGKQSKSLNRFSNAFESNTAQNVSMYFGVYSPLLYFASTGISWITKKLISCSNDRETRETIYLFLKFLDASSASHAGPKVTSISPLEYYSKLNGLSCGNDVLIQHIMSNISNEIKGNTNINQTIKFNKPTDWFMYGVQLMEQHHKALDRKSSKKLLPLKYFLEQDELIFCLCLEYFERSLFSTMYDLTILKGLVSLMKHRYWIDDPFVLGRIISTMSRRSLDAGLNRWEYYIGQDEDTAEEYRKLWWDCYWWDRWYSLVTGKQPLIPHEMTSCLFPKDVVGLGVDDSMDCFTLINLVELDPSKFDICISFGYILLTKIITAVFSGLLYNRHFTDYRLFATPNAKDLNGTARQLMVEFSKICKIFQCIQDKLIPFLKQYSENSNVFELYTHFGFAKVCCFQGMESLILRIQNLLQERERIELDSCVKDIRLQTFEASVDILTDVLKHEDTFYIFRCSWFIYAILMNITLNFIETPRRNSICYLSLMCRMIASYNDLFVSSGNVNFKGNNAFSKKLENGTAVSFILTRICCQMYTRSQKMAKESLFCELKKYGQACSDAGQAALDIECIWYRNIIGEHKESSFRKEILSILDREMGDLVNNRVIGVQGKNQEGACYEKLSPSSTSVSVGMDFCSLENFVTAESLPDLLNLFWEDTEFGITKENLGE
# Assay: PBM E-score (8-mer binding enrichment) (E-score (-0.5 to 0.5)); higher = stronger / more preferred TF binding
# Conditions: protein concentration: 100 nM; construct: GST-full length
# Summary of the method: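 GST-tagged yeast TFs (full-length or DNA-binding domain) were made by PURExpress in vitro transcription/translation and applied at about 100-200 nM to universal all-10-mer Agilent arrays. The arrays were made double-stranded by primer extension, on fresh or once-stripped slides. Bound protein was detected with fluorescent anti-GST, and scans were normalised with masliner. Each ungapped eight-base word, pooled with its reverse complement, received an E-score (modified Wilcoxon-Mann-Whitney statistic) from the Universal PBM Analysis Suite.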
row,Sequence,PBM E-score
1,GCGTAAGC,-0.247
2,CCGTGTAG,-0.0156
3,CAGCTATA,-0.153
4,CGCTAAGA,0.073
5,ATGCATAG,-0.0591
6,CTCAGTCC,-0.163
7,CAACCATA,-0.0489
8,CGCGTGCA,-0.149
9,CGAATCAA,0.203
10,AGAAAAGG,0.0774
11,GATGATAC,0.00594
12,TACATACA,0.123
13,ATAAACGG,0.236
14,GCTAATAA,0.0169
15,AATCGTCA,-0.0694
16,GCCCGCGC,0.132
17,CAGGCAGG,-0.122
18,ACCGTAGG,-0.23
19,CACCCCTG,-0.382
20,AATCGTGA,-0.0488
21,CGGCGACG,0.157
22,CGCGTTAA,-0.0373
23,CCTATCCG,-0.0528
24,GGGAGATA,-0.161
25,CCGATCGC,0.125

row,Sequence,PBM E-score
1,CGAACACA,0.154
2,AGAGAATC,-0.0146
3,AGTATGAT,0.1
4,TCATCGAA,0.0784
5,ACGTTTTG,-0.11
6,CGCGGTTA,0.135
7,GGCGAGCA,-0.14
8,GTCTAAAA,-0.0151
9,CCGGTGAG,0.0289
10,AAAGGTGA,-0.0785
11,GGATTGCA,0.0231
12,ACGTCAGT,-0.185
13,GACGTATA,-0.196
14,CACGCCAA,0.0109
15,ATAAAAGC,0.0719
16,AGTGGTTC,0.02
17,TTACCAAA,0.146
18,GATGAGGC,-0.2
19,CCTGTACG,-0.107
20,AGTGTCGG,0.17
21,CACGTCGG,0.0631
22,CAATCGGA,0.278
23,CACATAAG,-0.126
24,GCAAAGGC,-0.222
25,CACCGGGA,0.152

row,Sequence,PBM E-score
1,AGTATACT,-0.164
2,ATTAGAAA,0.151
3,ACGCCGAT,0.151
4,AGCCAACT,-0.224
5,GAGCGTAA,0.0232
6,GGAAGACC,0.0141
7,AACTGATT,-0.0342
8,AGCGTGCG,0.0419
9,CCATATAA,-0.0407
10,AATACGAA,0.22
11,CATTTAGC,-0.135
12,GTAGAAGA,-0.122
13,CCGCCCTA,-0.158
14,GAAGAGAC,0.196
15,AACAGCTA,-0.0664
16,CACAACCC,-0.144
17,AGCGCAAG,-0.108
18,CTCCGTCA,0.0186
19,AGTGGGTC,-0.257
20,AATCTGCT,0.0114
21,AGGTTGCC,-0.136
22,AGGCACCT,-0.183
23,CCTGGCCC,-0.134
24,CTCAATCA,0.119
25,ACGTAACG,-0.107

row,Sequence,PBM E-score
1,CTAAGTAA,0.11
2,AGCGTAAC,0.0881
3,CCGTTACG,0.0574
4,GACGAGTC,-0.106
5,AAAGTTGG,-0.0523
6,TAATGATA,0.25
7,GGTGCCAC,-0.119
8,AAAATGAT,0.189
9,CTTTCCCA,-0.0839
10,ACGCTCTA,-0.311
11,CGCTGCGA,0.0144
12,TCAACTCA,-0.0352
13,GAGCCAAA,-0.115
14,AATCAGGT,0.255
15,AATCTCCC,-0.132
16,AAGTTCAA,0.229
17,AGCTACCA,-0.173
18,CTATAAAG,-0.034
19,GATTTGCC,0.181
20,GACCGTGA,0.0402
21,CACCCATC,-0.107
22,AAAGCAAA,0.221
23,AGCTGTTC,-0.0646
24,CTGTGGCC,-0.15
25,AAACAGGT,-0.0555

row,Sequence,PBM E-score
1,CAATTAAG,0.21
2,GCCAGGAC,-0.161
3,TAGGGACA,-0.0514
4,GGAAGAAA,0.19
5,AAGAAGGG,-0.268
6,CCCTTTGA,-0.266
7,GCCGCACA,-8e-05
8,ATATAACC,-0.0755
9,AAACCTAG,-0.0735
10,GCAGCCCA,-0.289
11,AGTTTGGA,0.135
12,AAAATATA,0.273
13,ATGCAAGG,-0.365
14,AACGAATT,0.118
15,GAAGATTA,0.0705
16,TCATCACA,-0.272
17,ACACAGCT,-0.0952
18,TAGGTGCA,-0.175
19,CCAACAAA,0.121
20,AAACCTAA,0.0262
21,GAAGAACA,0.194
22,ACAGGAAG,0.0482
23,CAGGTGCC,-0.0579
24,GACTCATC,-0.254
25,ACGCACGG,0.17

row,Sequence,PBM E-score
1,ATTCGGTA,0.329
2,GTCGATAA,-0.0725
3,AGATGGAC,0.0923
4,AAAGAAGT,0.0907
5,ACTGAGCA,-0.107
6,CAACTTGA,0.128
7,ATGGGGGA,-0.387
8,ACGAATGG,0.0455
9,AATGCGCT,-0.156
10,CAACGCTA,-0.142
11,CTTTGGGC,0.0655
12,CGCAACCA,0.0528
13,GCTAACCC,-0.129
14,CCCAGCAA,-0.00378
15,ATAGCTAG,-0.13
16,CGAGAGGA,0.0152
17,GTCAAGGA,-0.0802
18,CATTGCAG,-0.038
19,CGACGGTA,0.152
20,CCAGAGAC,-0.195
21,AGTTGACC,0.0585
22,GATTTCTA,0.252
23,AATTACAT,0.214
24,CGGGACAA,0.202
25,ACATGAAA,-0.193

row,Sequence,PBM E-score
1,CATATGGC,-0.0624
2,CAGATGGC,-0.0517
3,GGTCACTA,-0.0834
4,GTTGGTGA,-0.136
5,ATTTGAGG,0.0459
6,ATTCGGAC,0.349
7,GGCACCAA,0.138
8,GATGTAGA,-0.0255
9,ACTAATAT,0.0845
10,AACGCAAC,0.0396
11,ATCGGTCG,0.103
12,GGTCTACA,-0.0802
13,GTAAATGA,0.113
14,AAAGCTCG,0.141
15,CGTGCAGA,-0.112
16,CCGTGTGA,0.106
17,TCTCGGAA,0.334
18,AATTAAGG,-0.0516
19,CATTCGAG,-0.0644
20,AGCCAAAG,-0.0858
21,CAGGGAAC,-0.0403
22,AAGAACCA,0.0592

# Quoted from the listing (2 entries):
row,Sequence,PBM E-score
1,CATATGGC,-0.0624
2,CAGATGGC,-0.0517

# Quoted from the listing.
# Entry for TCTCGGAA under PBM E-score: 0.334
# Entry for GATGTAGA under PBM E-score: -0.0255
# Entry for ATTTGAGG under PBM E-score: 0.0459
# Entry for ATCGGTCG under PBM E-score: 0.103

# — the supplement of paper PMC3334620
